Results taken from patent publication US20110104705A1, “Musclin receptor and use thereof” (Takeda Pharmaceutical Company Limited, priority 2006, published 2011).
Results are given in words; binding and its absence hold for the method and conditions named. Some binding calls cover weakened binding; strength is not graded here.

Biological target: T1, human NPR3 (hNpr3) expressed on FreeStyle293 cells (human) (UniProt P17342)
T1 sequence: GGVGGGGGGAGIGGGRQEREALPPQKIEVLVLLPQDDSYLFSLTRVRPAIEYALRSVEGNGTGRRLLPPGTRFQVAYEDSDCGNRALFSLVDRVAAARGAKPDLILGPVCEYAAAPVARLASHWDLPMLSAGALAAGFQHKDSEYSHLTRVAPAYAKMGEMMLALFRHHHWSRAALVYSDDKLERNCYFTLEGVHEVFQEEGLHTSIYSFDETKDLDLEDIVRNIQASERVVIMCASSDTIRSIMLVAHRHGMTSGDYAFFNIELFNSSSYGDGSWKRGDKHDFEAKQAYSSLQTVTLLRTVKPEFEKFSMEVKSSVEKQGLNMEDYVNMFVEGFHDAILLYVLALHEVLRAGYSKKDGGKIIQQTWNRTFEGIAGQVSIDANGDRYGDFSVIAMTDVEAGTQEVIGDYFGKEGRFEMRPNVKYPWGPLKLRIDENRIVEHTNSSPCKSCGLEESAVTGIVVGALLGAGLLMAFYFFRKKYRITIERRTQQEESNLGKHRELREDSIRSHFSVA
Test: competition with BK-/BC-mMusclin on hNpr3-transfected FreeStyle293 cells, single concentration; binding shown by displacement

binding: binds
B1: full-length mMusclin (unlabeled) (ligand)
chain: LASQEFGTASLQSPPTAREEKSATELSAKLLRLDDLVSLENDVFETKKKRSFSGFGSPLDRLSAGSVEHRGKQRKAVDHSKKRFGIPMDRIGRNRLSSSRG
